These are yes or no findings as the source states them, for the method shown. In cells and extracts the contact can be indirect. Some results given as binding are weak or reduced against the parent protein; the word gives no strength. Tags and fused reporters may be left off the sequences shown.
Target: OsLecRK5 (rice lectin receptor-like kinase), BiFC fusion (rice (Oryza sativa))
Test: split reporter; BiFC with Yn (YFP 1-158) and Yc (YFP 155-239) fusions transiently expressed in Nicotiana benthamiana (tobacco) leaf mesophyll cells; fluorescence microscopy

B1: OsLecRK5 (rice lectin receptor-like kinase), BiFC fusion (receptor, UniProt A0A0P0VIP0 24-695)
chain: AAASSIAAAPASSYRRISWASNLTLLGSASLLPGAAGVALTTPSRDGVGAGRALFSEPVRLLLPQDAAASASASRAATPASFSTRFTFRITPSPTYGDGLAFLLTSSRTFLGASNGFLGLFPSSSASDEGELRDVSTVAVEIDTHLDVALHDPDGNHVALDAGSIFSVASAQPGVDLKAGVPITAWVEYRAPRRRLNVWLSYSPSRRPEKPALSADVDLSGLLRTYMYAGFSASNGNGAALHVVERWTFRTFGFPNSSYAPPPTKYIGPMPPNNQPLPPPPSPSPSPPPPSPPPPPHPNHRRRHLFYKVLGGVLGGMVLLGLVVVGSAVLLGRSVRRKNQEHAVASEDMGEATLSMEVARAATKGFDSGNVIGVGGSGATVYEGVLPSGSRVAVKRFQAIGSCTKAFDSELKAMLNCPHHPNLVPLAGWCRSKDELVLVYEFMPNGNLDSALHTLGGATLPWEARFRAVYGVASALAYLHDECENRIIHRDVKSSNVMLDAEFNARLGDFGLARTVSHGGLPLTTQPAGTLGYLAPEYVHTGVATERSDVYSFGVLALEVATGRRPAERGISVVNWVWTLWGRRRLVDAADRRLQGRFVADEMRRVLLVGLCCVHPDCRKRPGMRRVVSMLDGTAPLILVPDKMPPVLLQPVPNASSMNSADTANTAFFSCR
binding: binds

Source: PMC7475243
